Screen size: about 310,000 compounds; about 17,000 (5.5%) were called active. This list was built around the results that the source calls inconclusive (neither active nor inactive); the mix of calls is not that of the screen. Calls follow the shape of the dose curve; as a rule, active = well fitted inhibition curve with a large enough effect; inconclusive = small, poorly fitted or top-dose-only effect, or effect the other way; inactive = no such curve, though single readings can be large or run the other way. A potency beside an inconclusive call is a rough fit, not a confirmed value.
molecular target: Nuclear receptor ROR-gamma (Mus musculus) (UniProt P51450); test: qHTS for inhibitors of ROR gamma transcriptional activity; conditions: Drosophila S2 Gal4-RORgamma UAS-luciferase reporter, 20 h; activity change, negative = inhibition: at 53.6 µM (top of the series); also: nearly all actives have a fitted effect of over 60% in size
In short: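 A Gal4/UAS one-hybrid system in insect cells: metallothionein-promoter Gal4–ROR gamma fusion plus Photinus luciferase reporter. Copper sulfate 700 uM final, 20 hr ambient incubation, luminescent detection after 10 min with reagent.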
% is scaled to controls: 0 for no effect and ±100 for the full control effect; potency is read from the fitted curve at half-maximal effect.

Amino acid sequences for entries named in this document (tags omitted). A change or cut given only in a name is not applied to a line headed by its entry.
UniProt P51450: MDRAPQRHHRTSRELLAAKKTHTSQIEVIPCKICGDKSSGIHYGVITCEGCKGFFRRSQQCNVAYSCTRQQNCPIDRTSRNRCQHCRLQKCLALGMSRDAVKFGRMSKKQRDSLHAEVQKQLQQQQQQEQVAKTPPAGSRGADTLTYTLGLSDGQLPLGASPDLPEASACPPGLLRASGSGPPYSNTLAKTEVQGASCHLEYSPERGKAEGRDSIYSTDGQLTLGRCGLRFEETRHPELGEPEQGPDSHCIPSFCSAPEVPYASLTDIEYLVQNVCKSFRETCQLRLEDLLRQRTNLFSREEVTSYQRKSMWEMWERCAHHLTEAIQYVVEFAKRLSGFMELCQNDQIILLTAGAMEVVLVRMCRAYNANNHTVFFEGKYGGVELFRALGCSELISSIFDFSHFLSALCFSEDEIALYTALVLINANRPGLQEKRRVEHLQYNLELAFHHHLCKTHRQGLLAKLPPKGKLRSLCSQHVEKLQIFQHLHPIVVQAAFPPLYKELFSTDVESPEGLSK

Compound	Potency	activity change, negative = inhibition
O=S(=O)(Nc1cccc(-c2ccc(N3CCCCCC3)nn2)c1)c1ccccc1Cl	inconclusive: 11.2 µM [activator, partial curve]	–
CC1CCCN(S(=O)(=O)c2ccc(C(=O)Nc3sc4c(c3C(N)=O)CCN(C)C4)cc2)C1 (configuration not stated)	inconclusive: 22.4 µM [inhibitor, single point]	–
Cc1ccccc1Cn1c(C)nc2ccc([N+](=O)[O-])cc2c1=O	inconclusive: 15.8 µM [activator, single point]	–
c1nc(NC2CCCCCC2)c2[nH]cnc2n1	inconclusive: 7.08 µM [activator, partial curve]	–
Cc1ccc(NC(=O)CSc2nn(-c3ccccc3)c(=S)s2)cc1S(=O)(=O)N(C)C	inconclusive: 3.16 µM [activator, partial curve]	–
O=C(NCc1ccco1)c1ccc2c(=O)n(CC3CCCO3)c(=S)[nH]c2c1 (configuration not stated)	inconclusive: 0.891 µM [activator, full curve]	–
Cc1csc(NC(=O)c2cc3c(C)nn(Cc4ccccc4Cl)c3s2)n1	inconclusive: 17.8 µM [inhibitor, single point]	–
COc1cccc(Cn2cnc3c(N)c(C)c(C)cc32)c1	inconclusive: 10 µM [inhibitor, partial curve]	–
CC1CCN(Cc2nnc(-c3cccc(Br)c3)o2)CC1	inactive	–
COc1ccccc1C(=O)NC(C)C(c1cccs1)N1CCN(C)CC1 (configuration not stated)	inconclusive: 5.62 µM [activator, full curve]	–
COc1ccc(C(=O)Nc2ccc(S(=O)(=O)N3CCCCC3)cc2)cc1	inconclusive: 35.5 µM [activator, single point]	–
COc1ccc(NC(=O)c2cc(CN3C(=O)c4ccccc4C3=O)ccc2OC)cn1	inconclusive: 5.62 µM [inhibitor, single point]	–
N#Cc1cc2c(nc1SCC(=O)Nc1sc3c(c1C#N)CCC3)CCCC2	inactive	–
Cc1c(C#N)c(N)nc2c3c(sc12)NC(=O)CC3c1ccc(Cl)cc1 (configuration not stated)	inconclusive: 35.5 µM [inhibitor, single point]	–
O=[N+]([O-])c1ccc(C2CCCC/C2=N\OCc2cccc(F)c2)c([N+](=O)[O-])c1 (configuration not stated)	inconclusive: 17.8 µM [activator, single point]	–
CCCOc1ccc(-c2nnc(N)s2)cc1	inconclusive: 2.51 µM [activator, partial curve]	–
NC(=O)SCC(=O)Nc1cccc(Cl)c1	active: 10 µM	–
Cc1ccc(NC(=O)C2=C(C(=O)O)CCCC2)cc1Br	inconclusive: 20 µM [activator, single point]	–
CC(=O)OCC1OC(C#Cc2ccc(F)cc2F)C=CC1OC(C)=O (configuration not stated)	inconclusive: 5.62 µM [inhibitor, single point]	–
Cn1ncc2c(NCc3ccccc3)nc(NCCCO)nc21	inactive	–
CCc1ccc(S(=O)(=O)NCc2cn3cccc(C)c3n2)s1	inconclusive: 14.1 µM [activator, partial curve]	–
Clc1ccc2c(c1)C(c1cccs1)=NNC(c1cccnc1)=N2	inconclusive: 35.5 µM [inhibitor, single point]	–
O=C(Nc1ccc(-c2cn3c(n2)SCC3)cc1)c1ccc2ccccc2n1	inconclusive: 22.4 µM [inhibitor, partial curve, poor fit]	–
FC(F)(F)c1cnc(NNC(=S)Nc2ccccc2Cl)c(Cl)c1	inconclusive: 31.6 µM [inhibitor, single point]	–

Compound	Potency	activity change, negative = inhibition
COc1ccc(CSc2nc3ccccc3c(=O)n2CCCN2CCOCC2)cc1F	inactive	–
CC1(CCc2ccc3c(c2)OCO3)NC(=O)c2ccccc2N1 (configuration not stated)	inconclusive: 7.94 µM [activator, partial curve, poor fit]	–
O=C(N/N=C/c1cnc(N2CCCCC2)s1)c1ccc(Cl)cc1	active: 2.24 µM	–
C/C(CC1CC(COCC(C)C)OC1=O)=N\Nc1nc(-c2ccccc2)cs1 (configuration not stated)	inconclusive: 35.5 µM [inhibitor, single point]	–
Cc1ccc2[nH]c3c(N4CCc5ccccc5C4)ncnc3c2c1	inconclusive: 35.5 µM [inhibitor, single point]	–
N#CCCCS(=O)(=O)c1nnnn1-c1ccc(F)cc1Br	inconclusive: 35.5 µM [inhibitor, single point]	–
CCN(Cc1ccccc1)C(=O)c1ccccc1C	inconclusive: 35.5 µM [activator, single point]	–
O=S1(=O)NC(=NCCc2ccccn2)c2ccccc21	inactive	–
Cc1cccc(NC(=S)N2CCC(N(C)CC3CCCO3)CC2)c1 (configuration not stated)	inactive	–
O=C(COC(=O)c1ccccc1NS(=O)(=O)c1ccc(Cl)cc1)NCc1ccccc1	inconclusive: 35.5 µM [inhibitor, single point]	–
COc1ccc(NC(=S)NNC(=O)CNc2ccc(Cl)cc2)cc1	active: 5.62 µM	–
C(=N\NC1=Nc2cccc3cccc1c23)/c1cccnc1	inconclusive: 10 µM [inhibitor, partial curve]	–
CCc1ccccc1S(=O)(=O)Cc1ccc(C(=O)NCCc2ccccc2)o1	inconclusive: 12.6 µM [activator, single point]	–
Cc1cc(-c2ccccc2)nc(N/N=C/c2ccccc2F)n1	inconclusive: 10 µM [inhibitor, partial curve]	–
CCCn1nc(NC(=O)CC)c2cc3cccc(C)c3nc21	inactive	–
O=C(Nc1cccc(C2=NCCN2)c1)Nc1cccc(C2=NCCN2)c1	–	inactive: 2.35% [at 10 µM]
O=C(CNC(=O)Cc1ccccc1)NCc1cccc(C(F)(F)F)c1	inactive	–
NC(=O)CC1C(=O)N(c2ccc(Cl)cc2)C(=S)N1NC(=O)c1cccc(F)c1 (configuration not stated)	inconclusive: 15.8 µM [inhibitor, single point]	–
CC(C)(C)c1ccc(Oc2ccc(NC(=O)c3cccs3)cn2)cc1	inconclusive: 2.51 µM [activator, partial curve, poor fit]	–
CCc1cc2c(=O)c(-c3cnn(-c4ccccc4)c3)coc2c(CN2CCOCC2)c1O	inconclusive: 8.91 µM [activator, partial curve]	–
COc1ccc(C(=O)N2CCCC(c3ccccc3)C2)cc1 (configuration not stated)	inconclusive: 15.8 µM [activator, partial curve, poor fit]	–
Cc1ccc2nc(C)c(CN3CCN(c4ccc([N+](=O)[O-])cc4Cl)CC3)n2c1	active: 14.1 µM	–
Cc1cccc(N2CCN(c3ccc(N4C(=O)CCCC4=O)cc3[N+](=O)[O-])CC2)c1C	inconclusive: 35.5 µM [activator, single point]	–
COCCCN(C(=S)NC(=O)C12CC3CC(CC(C3)C1)C2)c1c(N)n(Cc2ccccc2)c(=O)[nH]c1=O	inconclusive: 35.5 µM [inhibitor, single point]	–

Single records, from the list above. Values in the order: Potency | activity change, negative = inhibition
`O=C(CNC(=O)Cc1ccccc1)NCc1cccc(C(F)(F)F)c1` in the list: inactive | –
`O=[N+]([O-])c1ccc(C2CCCC/C2=N\OCc2cccc(F)c2)c([N+](=O)[O-])c1` (configuration not stated) in the list: inconclusive: 17.8 µM [activator, single point] | –

(more compounds)

Compound	Potency	activity change, negative = inhibition
COc1ccc(NS(=O)(=O)Cc2ccccc2Cl)cn1	inactive	–
CCc1ccc(N(CC(=O)N2CCN(Cc3ccccc3)CC2)S(C)(=O)=O)cc1	inconclusive: 0.447 µM [activator, partial curve, poor fit]	–
O=C(OCC(=O)N1CCCC1=O)C1COc2ccccc2O1 (configuration not stated)	inconclusive: 17.8 µM [inhibitor, single point]	–
CC1=NN(c2ccccc2)C(=O)C1N=Nc1ccccc1 (configuration not stated)	inconclusive: 25.1 µM [inhibitor, single point]	–
CCOC(=O)N1CCC(n2c(SCC(=O)OCc3ccccc3)nc3ccsc3c2=O)CC1	inactive	–
CN(Cc1ccccc1)S(=O)(=O)c1ccc2c(c1)OCCO2	inactive	–
O=C(COc1cccc2cccnc12)N/N=C/c1ccccc1O	inconclusive: 3.55 µM [inhibitor, single point]	–
COC(=O)c1ccc(/C=N/NC(=O)C2CC(=O)N(c3ccc(OC)cc3)C2)cc1 (configuration not stated)	inactive	–
COc1ccccc1C(CC(=O)Nc1ccc(Cl)cc1)c1ccc(OC(C)C)cc1 (configuration not stated)	inactive	–
O=C(Nc1ccc2c(c1)oc1ccc(S(=O)(=O)N3CCCC3)cc12)C1CC1	inactive	–
O=C(NCCN1CCOCC1)C1CC(=O)N(c2ccc(F)cc2)C1 (configuration not stated)	inactive	–
O=C(Nc1nccs1)c1cc2c(s1)CCCCC2	inactive	–
CC(=O)Nc1ccc(C(=O)OCC(=O)Nc2c(F)cccc2F)cc1	inactive	–
c1ccc(Cc2nc(-c3ccccn3)no2)cc1	inactive	–
COC(=O)c1ccc(NC(=O)c2ccccc2SC)cc1	inconclusive: 1.41 µM [activator, partial curve, poor fit]	–
O=C(Nc1ccccc1F)c1oc2ccccc2c1NC(=O)C1CC1	inconclusive: 35.5 µM [inhibitor, single point]	–
CCOc1ccc(NC(=O)NCc2cccn2C)cc1	inactive	–
COc1ccc(C2CCCN2C(=O)Nc2ccc(C)c(C)c2)cc1OC (configuration not stated)	inactive	–
COc1ccc(CC(=O)N2CCCc3ccccc32)cc1OC	inconclusive: 15.8 µM [activator, single point]	–
Cc1ccc(NC(=S)NCCN2CCOCC2)cc1	inconclusive: 17.8 µM [inhibitor, partial curve, poor fit]	–
Cc1nn(-c2ccccc2)c(C)c1/C=N/NC(=O)CSc1nnc(SCc2ccc(Cl)cc2)s1	inconclusive: 22.4 µM [activator, partial curve]	–
Cc1cccc(/C=C2/Sc3ccc(C(=O)NCCN4CCCC4)cc3NC2=O)c1	inconclusive: 14.1 µM [inhibitor, single point]	–
Cc1cc(C)cc(NC(=O)CN2CCC(NC(=O)c3ccccc3F)CC2)c1	inactive	–
COc1ccccc1C1C=C(c2ccccc2)Nc2nnnn21 (configuration not stated)	inactive	–
